# Experimental data: publication doi:10.1101/2025.10.29.685270
# Chains of the proteins cited; added tags and fusions are not shown. Residues count along the entry.
# UniProt P51608, 90-181: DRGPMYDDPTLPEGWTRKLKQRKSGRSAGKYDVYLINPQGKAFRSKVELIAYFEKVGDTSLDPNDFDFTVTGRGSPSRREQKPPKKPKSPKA
# The exact form of at least one protein or probe is not confirmed. At least one verdict rests on a figure or table, not on a statement of the authors.
# Target: MECP2 wt MBD (Homo sapiens) (UniProt P51608)
# Experiment: EMSA
# Conditions: strand 2 C12=5mC; residues 90-181; letters put together from the description
sequence,measurement,value
"AAAAAAAAAAATGAAAAAAAAAAA (double strand) [mCpA 24-mer, dA/dT context]",binding result,binds
